## Melanoma cell counts after drug treatment

Data from the primary screen of doi:10.1371/journal.pone.0140310, rounded.

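The test systems are human melanoma cell lines, treated with two drugs together for 72 h and then stained and imaged. Each value is the count of nuclei relative to DMSO-treated wells, in %, so that 100 equals the control. Every drug was used at one fixed concentration, the lower of two screened (a fifth of the higher). These are primary screening values without error estimates.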
Only some of the drugs and lines screened are listed, without regard to their results.

Drugs:
JZL184: O=C(Oc1ccc([N+](=O)[O-])cc1)N1CCC(C(O)(c2ccc3c(c2)OCO3)c2ccc3c(c2)OCO3)CC1 at 1000 nM
perifosine: CCCCCCCCCCCCCCCCCCOP(=O)([O-])OC1CC[N+](C)(C)CC1 at 400 nM
U73122: COc1ccc2c(c1)CCC1C2CCC2(C)C(NCCCCCCN3C(=O)C=CC3=O)CCC12 (stereo unspecified) at 400 nM
LFM-A13: C/C(O)=C(\C#N)C(=O)Nc1cc(Br)ccc1Br at 2000 nM
decitabine: Nc1ncn([C@H]2C[C@H](O)[C@@H](CO)O2)c(=O)n1 at 100 nM
GW0742: Cc1cc(SCc2sc(-c3ccc(C(F)(F)F)c(F)c3)nc2C)ccc1OCC(=O)O at 2000 nM
CHIR-265: Cn1c(Nc2ccc(C(F)(F)F)cc2)nc2cc(Oc3ccnc(-c4ncc(C(F)(F)F)[nH]4)c3)ccc21 at 80 nM
IMD-0354: O=C(Nc1cc(C(F)(F)F)cc(C(F)(F)F)c1)c1cc(Cl)ccc1O at 16 nM
darinaparsin: C[As](C)SC[C@H](NC(=O)CC[C@H](N)C(=O)O)C(=O)NCC(=O)O at 400 nM
TCS401: O=C(O)C(=O)Nc1sc2c(c1C(=O)O)CCNC2 at 1670 nM
Src-I1: COc1cc2ncnc(Nc3ccc(Oc4ccccc4)cc3)c2cc1OC at 2000 nM
FK866: O=C(/C=C/c1cccnc1)NCCCCC1CCN(C(=O)c2ccccc2)CC1 at 10 nM
PF-562271: CN(c1ncccc1CNc1nc(Nc2ccc3c(c2)CC(=O)N3)ncc1C(F)(F)F)S(C)(=O)=O at 80 nM
everolimus: CO[C@H]1C[C@@H]2CC[C@@H](C)[C@@](O)(O2)C(=O)C(=O)N2CCCC[C@H]2C(=O)O[C@H]([C@H](C)C[C@@H]2CC[C@@H](OCCO)[C@H](OC)C2)CC(=O)[C@H](C)/C=C(\C)[C@@H](O)[C@@H](OC)C(=O)[C@H](C)C[C@H](C)/C=C/C=C/C=C/1C at 20 nM
GW441756: Cn1cc(/C=C2\C(=O)Nc3cccnc32)c2ccccc21 at 400 nM
vismodegib: CS(=O)(=O)c1ccc(C(=O)Nc2ccc(Cl)c(-c3ccccn3)c2)c(Cl)c1 at 1000 nM
MK-2206: NC1(c2ccc(-c3nc4ccn5c(=O)[nH]nc5c4cc3-c3ccccc3)cc2)CCC1 at 400 nM
gemcitabine: Nc1ccn([C@@H]2O[C@H](CO)[C@@H](O)C2(F)F)c(=O)n1 at 0.4 nM
ruxolitinib: N#CC[C@H](C1CCCC1)n1cc(-c2ncnc3[nH]ccc23)cn1 at 1000 nM
GSK0660: COC(=O)c1sccc1S(=O)(=O)Nc1ccc(Nc2ccccc2)cc1OC at 1000 nM

Pair | C32
JZL184 and TCS401 | 81.5
U73122 and decitabine | 99.4
LFM-A13 and CHIR-265 | 92.6
LFM-A13 and IMD-0354 | 99.6
GW441756 and MK-2206 | 95.3
GSK0660 and MK-2206 | 82.6
ruxolitinib and LFM-A13 | 99.7
LFM-A13 and MK-2206 | 88.6
JZL184 and decitabine | 97.6
gemcitabine and darinaparsin | 111
perifosine and Src-I1 | 89.8
LFM-A13 and FK866 | 103
FK866 and GW0742 | 102
vismodegib and TCS401 | 116
gemcitabine and GSK0660 | 98.5
vismodegib and LFM-A13 | 96.1
vismodegib and U73122 | 92.8
LFM-A13 and Src-I1 | 87.1
JZL184 and CHIR-265 | 76.5
LFM-A13 and PF-562271 | 87.3
everolimus and darinaparsin | 76.9

The first 2 entries again:

| Pair | C32 |
|---|---|
| JZL184 and TCS401 | 81.5 |
| U73122 and decitabine | 99.4 |